In paper PMC11390955:
No constants are given. Whether binding was seen depends on the method and setting. Some binding calls cover weakened binding; strength is not graded here.

Amino acid sequences for entries named in this document (tags omitted). Residues count along the entry.
UniProt P18177: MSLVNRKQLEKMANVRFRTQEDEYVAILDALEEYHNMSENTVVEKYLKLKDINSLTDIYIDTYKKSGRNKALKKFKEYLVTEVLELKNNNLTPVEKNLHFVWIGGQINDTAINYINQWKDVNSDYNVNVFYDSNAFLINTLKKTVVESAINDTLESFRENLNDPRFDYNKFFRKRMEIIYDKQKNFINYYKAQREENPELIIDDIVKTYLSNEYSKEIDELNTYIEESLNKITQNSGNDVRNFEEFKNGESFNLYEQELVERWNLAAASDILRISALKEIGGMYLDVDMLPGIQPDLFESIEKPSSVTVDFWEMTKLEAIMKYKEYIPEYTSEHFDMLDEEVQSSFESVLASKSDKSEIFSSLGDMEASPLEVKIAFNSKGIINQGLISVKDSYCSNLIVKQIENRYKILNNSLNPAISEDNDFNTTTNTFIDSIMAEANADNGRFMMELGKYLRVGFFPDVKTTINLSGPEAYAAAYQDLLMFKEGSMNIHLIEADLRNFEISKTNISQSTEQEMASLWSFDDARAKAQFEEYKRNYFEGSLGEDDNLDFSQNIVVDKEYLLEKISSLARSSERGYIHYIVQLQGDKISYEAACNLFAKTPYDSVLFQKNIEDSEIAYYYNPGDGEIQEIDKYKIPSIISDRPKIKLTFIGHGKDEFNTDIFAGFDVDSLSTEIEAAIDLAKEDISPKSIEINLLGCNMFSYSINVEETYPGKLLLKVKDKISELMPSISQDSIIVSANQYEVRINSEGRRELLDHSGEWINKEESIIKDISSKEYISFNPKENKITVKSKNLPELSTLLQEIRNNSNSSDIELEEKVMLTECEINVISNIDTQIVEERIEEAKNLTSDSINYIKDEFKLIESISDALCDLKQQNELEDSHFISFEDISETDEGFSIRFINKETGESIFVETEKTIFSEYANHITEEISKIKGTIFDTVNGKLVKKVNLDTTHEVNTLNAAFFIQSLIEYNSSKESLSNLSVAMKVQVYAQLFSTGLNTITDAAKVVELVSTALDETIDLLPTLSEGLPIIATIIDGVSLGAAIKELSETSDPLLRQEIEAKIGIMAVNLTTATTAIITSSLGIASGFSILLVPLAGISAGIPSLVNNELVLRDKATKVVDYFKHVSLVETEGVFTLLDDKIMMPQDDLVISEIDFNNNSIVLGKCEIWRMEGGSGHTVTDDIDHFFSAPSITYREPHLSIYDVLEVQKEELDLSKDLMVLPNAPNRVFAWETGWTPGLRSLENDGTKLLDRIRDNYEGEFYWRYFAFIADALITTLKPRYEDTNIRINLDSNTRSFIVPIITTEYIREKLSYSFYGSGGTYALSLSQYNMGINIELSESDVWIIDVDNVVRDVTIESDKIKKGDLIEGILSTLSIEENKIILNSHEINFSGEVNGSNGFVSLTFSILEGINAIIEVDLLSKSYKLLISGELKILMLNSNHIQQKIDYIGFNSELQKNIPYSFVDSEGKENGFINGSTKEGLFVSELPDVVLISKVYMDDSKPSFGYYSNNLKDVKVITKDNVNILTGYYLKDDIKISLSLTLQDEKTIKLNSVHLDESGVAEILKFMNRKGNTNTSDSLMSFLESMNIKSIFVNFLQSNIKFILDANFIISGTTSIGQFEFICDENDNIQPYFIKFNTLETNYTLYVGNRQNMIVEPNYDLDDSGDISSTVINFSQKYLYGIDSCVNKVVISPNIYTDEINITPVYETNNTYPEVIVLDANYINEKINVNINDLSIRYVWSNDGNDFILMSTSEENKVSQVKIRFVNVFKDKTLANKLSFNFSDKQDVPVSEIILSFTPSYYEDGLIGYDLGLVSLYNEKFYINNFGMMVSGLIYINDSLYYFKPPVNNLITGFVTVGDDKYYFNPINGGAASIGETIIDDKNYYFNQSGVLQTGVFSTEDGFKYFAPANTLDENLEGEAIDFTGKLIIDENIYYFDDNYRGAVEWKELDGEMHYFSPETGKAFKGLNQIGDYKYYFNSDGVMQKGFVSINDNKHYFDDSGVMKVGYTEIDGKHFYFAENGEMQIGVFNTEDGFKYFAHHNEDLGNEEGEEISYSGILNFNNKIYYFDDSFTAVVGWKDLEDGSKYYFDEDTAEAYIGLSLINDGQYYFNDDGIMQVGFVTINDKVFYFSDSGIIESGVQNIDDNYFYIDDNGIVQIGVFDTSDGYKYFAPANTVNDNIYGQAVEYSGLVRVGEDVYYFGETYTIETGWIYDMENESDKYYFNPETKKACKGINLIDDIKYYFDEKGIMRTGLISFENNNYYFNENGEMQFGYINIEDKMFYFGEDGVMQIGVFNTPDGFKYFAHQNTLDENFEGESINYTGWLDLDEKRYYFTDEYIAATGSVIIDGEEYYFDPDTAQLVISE
UniProt P01009, residues 25-418: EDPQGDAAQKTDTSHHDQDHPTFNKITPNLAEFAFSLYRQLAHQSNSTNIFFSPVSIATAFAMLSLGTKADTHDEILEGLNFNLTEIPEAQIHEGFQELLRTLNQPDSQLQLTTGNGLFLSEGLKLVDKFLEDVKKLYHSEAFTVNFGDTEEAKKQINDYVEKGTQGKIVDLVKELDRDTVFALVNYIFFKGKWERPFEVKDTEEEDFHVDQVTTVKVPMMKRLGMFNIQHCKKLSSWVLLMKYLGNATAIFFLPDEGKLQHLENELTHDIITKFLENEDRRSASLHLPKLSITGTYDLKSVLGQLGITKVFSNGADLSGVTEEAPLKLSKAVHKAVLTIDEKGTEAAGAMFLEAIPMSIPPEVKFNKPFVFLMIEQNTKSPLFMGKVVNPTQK

Molecular target: Clostridioides difficile toxin B (TcdB), native, from strain VPI 10463 (Clostridioides difficile VPI 10463) (UniProt P18177)
Assay: co-sedimentation; both purified

Row | Molecule | binding
1 | human alpha-1 antitrypsin (α1AT), Prolastin (from UniProt P01009 25-418) | no binding
2 | AFTCHCRRSCYSTEYSYGTCTVMGINHRFCCL (peptide, UniProt Q01524 69-100) [α-defensin-6] | binds
